# Experimental data from PubChem BioAssay AID1347076 (National Center for Advancing Translational Sciences (NCATS), 2019).
# The whole screen tested about 400,000 compounds, of which about 13,000 (3.2%) were called active. The inconclusive results got no clear call from the source; some entries with a clear call stand among them for comparison. Calls come from the whole dose curve; as a rule, active = well fitted cell-killing curve with a large enough effect; inconclusive = small, poorly fitted or top-dose-only effect, or effect the other way; inactive = flat fitted curve, though single readings scatter. Potencies of inconclusive entries are doubtful fits and often do not repeat.
# Experiment: qHTS assay for MDR1-selective chemotherapeutics: Primary screen using the drug-selected MDR subline cells KB-V1; note: nearly all actives have a fitted effect of over 60% in size
# Conditions: KB-V1 MDR cells viability, CellTiter-Glo, 72 h; activity change, negative = cytotoxicity: at 46.1 µM (top of the series)
# Summary of the method: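 KB-V1 MDR subline cells in DMEM (phenol-red free, 10% FBS) exposed to compounds in qHTS concentration series for 72 h at 37 degrees C. Viability read by CellTiter-Glo luminescence; concentration-effect curves fitted after normalization and correction.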
# % is set by controls: 0 for no effect and ±100 for the full control effect; potency is the fitted concentration of half-maximal effect.
Compound,Potency,"activity change, negative = cytotoxicity"
COc1ccccc1CCNC(=O)CSc1nc(-c2ccco2)cc(C(F)(F)F)n1,"inconclusive: 18.4 µM [cytotoxic, partial curve, poor fit]",
Cc1ccc(Nc2c3c(nc4ccccc24)CCC3)cc1,active: 5.8 µM,
CC1CCN(c2c(NCC3CCC(C(=O)N4CCc5ccccc5C4)CC3)c(=O)c2=O)CC1 (configuration not stated),,inactive: 3.52%
Clc1ccccc1Cn1c(-c2cccs2)nc2ccccc21,"inconclusive: 29.1 µM [cytotoxic, single point]",
O=C(CNC(=O)c1cccc(S(=O)(=O)N2CCc3ccccc32)c1)Nc1ccc(F)c(F)c1F,"inconclusive: 20.6 µM [cytotoxic, single point]",
C/C(Cn1cnc([N+](=O)[O-])n1)=N/NC(=O)COc1c(Cl)cc(Cl)cc1Cl,"inconclusive: 2.91 µM [rising, full curve]",
O=C(c1cc(-c2ccc(Cl)cc2)n[nH]1)N1CCN(S(=O)(=O)c2ccc(Br)s2)CC1,"inconclusive: 10.3 µM [cytotoxic, partial curve]",
CCOc1cccc2sc(N(CCCN(C)C)C(=O)c3ccc(S(=O)(=O)N(C)Cc4ccccc4)cc3)nc12,,inactive: -21.4%
O=[N+]([O-])c1ccc(C[n+]2ccc(Cc3ccccc3)cc2)cc1,"inconclusive: 20.6 µM [rising, single point]",
CC(=O)Nc1cccc(C(=O)OCC(=O)NC(=O)C2CCCCC2)c1,,inactive: 1.56%
COc1ccc(OC)c(-c2cc(C(=O)NCc3cccs3)no2)c1,active: 16.4 µM,
Cc1ccc(CNC(=O)C2CC(c3cccc(F)c3)=NO2)cc1 (configuration not stated),"inconclusive: 23.1 µM [rising, partial curve, poor fit]",
CN(C)/C=C/C(=O)c1ccc(Cl)c([N+](=O)[O-])c1,"inconclusive: 1.84 µM [rising, partial curve]",
CCSC(=O)N1c2ccc(OC)cc2C=CC1C#N (configuration not stated),active: 0.731 µM,
Cc1cc(S(=O)(=O)N2CCOCC2)c(C)s1,"inconclusive: 29.1 µM [rising, partial curve, poor fit]",
Cc1ccc(NC(=O)CCC(=O)NN=Cc2ccc(C)o2)c(C)c1,,inactive: 12.5%
O=C(c1ccc([N+](=O)[O-])cc1)N1CCN(C(=O)c2ccco2)CC1,,inactive: -0.206%
Cc1[nH]c(=O)c(C(=O)/C=C/c2ccccc2F)c2c1CCCC2,active: 6.51 µM,
CC(C)Cn1c(SCC(=O)N2CCCc3ccccc32)nc2ccccc2c1=O,"inconclusive: 1.3 µM [cytotoxic, full curve, poor fit]",
N#Cc1cccnc1N1CCN(C(C(=O)NC2CCCC2)c2ccco2)CC1 (configuration not stated),"inconclusive: 4.61 µM [cytotoxic, full curve]",
Cc1nc(Nc2ccccc2)sc1C,,inactive: -10.8%
CC1(C)CC(NNCCC#N)=CC(=[N+]2CCCC2)C1,,inactive: -0.114%
Nc1nc(Nc2cccc(F)c2)nc2ccccc12,"inconclusive: 10.3 µM [cytotoxic, partial curve, poor fit]",
CC(=O)c1cccc(NC(=O)C2Cc3c(-c4cccc(C(N)=O)c4)ccnc3O2)c1 (configuration not stated),,inactive: 7.44%

# Some of the entries above in a different format:
Compound	Potency	activity change, negative = cytotoxicity
COc1ccc(OC)c(-c2cc(C(=O)NCc3cccs3)no2)c1	active: 16.4 µM	
CCSC(=O)N1c2ccc(OC)cc2C=CC1C#N (configuration not stated)	active: 0.731 µM	
N#Cc1cccnc1N1CCN(C(C(=O)NC2CCCC2)c2ccco2)CC1 (configuration not stated)	inconclusive: 4.61 µM [cytotoxic, full curve]	
CC(=O)c1cccc(NC(=O)C2Cc3c(-c4cccc(C(N)=O)c4)ccnc3O2)c1 (configuration not stated)		inactive: 7.44%

# Remaining list, next part:

Compound,Potency,"activity change, negative = cytotoxicity"
Cc1ccccc1C(=O)Nc1ccc2c(c1)nc(CCNC(=O)c1ccco1)n2C,,inactive: 0%
Cc1cccc(NC(=O)c2cn(-c3ccccc3)nc2-c2ccccc2)c1C,"inconclusive: 3.66 µM [cytotoxic, partial curve]",
O=C(c1ccccc1)C(c1ccccc1)[n+]1csc2ccccc21 (configuration not stated),,inactive: -20.8%
CC1CCc2c(sc(NC(=O)CCc3nc4ccccc4c(=O)[nH]3)c2C#N)C1 (configuration not stated),,inconclusive: 36.3%
CCCOc1ccc([C@@H]2C3CN(C(=O)OCC)CC=C3C(C#N)=C(N)C2(C#N)C#N)cc1OC (some centres not stated),,inactive: -12.8%
COC(=O)[C@H](CC(C)C)NS(=O)(=O)N(Cc1ccccc1)[C@@H](CC(C)C)C(=O)OC,"inconclusive: 20.6 µM [cytotoxic, partial curve]",
O=C(O)c1cccc(NC(=O)c2cc(-c3cccc(Cl)c3)nc3ccccc23)c1,"inconclusive: 29.1 µM [rising, single point]",
O=S(=O)(Nc1ccc2c(c1)nc1n2CCN(Cc2ccccc2)C1)c1ccccc1,active: 2.59 µM,
O=C(NCCC1=CCCCC1)C(=O)NCC(c1ccco1)N1CCN(c2ccccc2F)CC1 (configuration not stated),active: 4.11 µM,
N=C1/C(=C\c2ccc(SCc3ccccc3)o2)C(=O)N=C2SC=NN12,"inconclusive: 29.1 µM [rising, single point]",
CC(C)c1ccc(NC(=O)Cn2nnc(C(=O)NCc3ccc4c(c3)OCO4)c2N)cc1,"inconclusive: 23.1 µM [rising, single point]",
CC(C)(C)OC(=O)N1CCc2onc(-c3ccc(-n4cc(C5=CCCCC5)nn4)cc3)c2C1=O,"inconclusive: 6.51 µM [cytotoxic, partial curve, poor fit]",
S=C(Nc1ccc(Cl)cc1Cl)Nn1cnnc1,,inactive: 0%
COC(=O)c1sc(S(=O)(=O)NCCC(=O)O)c(C(=O)OC)c1C,"inconclusive: 10.3 µM [rising, partial curve, poor fit]",
Cc1ccc(OCCCCn2c(-c3ccc(Cl)cc3)nc3ccccc3c2=O)cc1,,inactive: 0%
CCC(C)c1ccccc1NC(=O)c1cccc(-n2cnnn2)c1 (configuration not stated),,inactive: 0.0317%
CCOc1ccc(NC(=S)NC(=O)C2CCCC2)cc1,,inactive: -13.4%
Cc1ccccc1OCC(=O)NCC(=O)OCc1cccc2ccccc12,"inconclusive: 18.4 µM [rising, single point]",
CC(C)(C)NC(=O)c1cccc(NC(=O)c2ccc(NC(=O)c3ccco3)cc2)c1,,inactive: -17.2%
Cn1c(SCc2cccc(Cl)c2)nc(C(F)(F)F)cc1=O,"inconclusive: 23.1 µM [cytotoxic, single point]",
Cn1c(-c2ccc(Cl)cc2)ccc(C#N)c1=O,active: 5.8 µM,
COc1ccccc1-c1ccc2c(c1)C(C)(Cc1ccc(F)c(Cl)c1)C(=O)N2 (configuration not stated),"inconclusive: 29.1 µM [cytotoxic, single point]",
c1cc2c(cc1C1=Nn3c(nnc3C3CCCCC3)SC1)OCO2,"inconclusive: 25.1 µM [cytotoxic, single point]",
